Measurements from patent US9592183B2, “Inhibitor of endothelin action and skin-whitening agent” (Kao Corporation, priority 2010, dated 2017).
Some of these results come from one statement about several compounds together.

test system: endothelin (ET-1)-induced rise in intracellular calcium concentration in normal human neonatal epidermal melanocytes (NHEMs); experiment: Endothelin action-suppressing effect: endothelin-induced rise in intracellular calcium (Fluo4-AM, FDSS); assay type: cell-based; settings: compound 50 μM; relative to control
Protocol: Normal human neonatal epidermal melanocytes (NHEMs, KURABO INDUSTRIES LTD.) were seeded at 3×10^4 cells/well (200 μL/well) in 96-well plates for use in fluorometry, and cultured at 37° C. under 5% CO2. The medium used was PMA (−), growth additive (HMGS)-containing Medium 254.
After culture for 3 days, the medium was removed from the culture plate by decantation, and replaced with an assay buffer containing a reagent Fluo4-AM for intracellular Ca^2++ measurement, which was followed by incubation at 37° C. for 1 hour. Subsequently, 20 seconds after the start of the measurement, the compound at a predetermined concentration was pretreated for 1 minute in a FDSS (Functional Drug Screening System) instrument, and then endothelin (ET-1, 100 nM final concentration) as a ligand was added to the wells. Fluo4-AM fluorescence was detected at the measurement wavelengths Ex. 480 nm and Em. 540 nm over time from the start of the measurement to 5 minutes later.
For each compound, the rate (%) of rise in intracellular calcium (calcium ion) concentration was calculated as a relative value (%) when an increase (Max ratio−Min ratio) in Fluo4-AM fluorescence in a control was normalized as 100. The suppressing effect of endothelin action was evaluated based on the calculated rate. In the control used, ethanol or a 10 to 95 v/v % aqueous ethanol solution was added at a final concentration of 0.1 to 0.5 v/v %. […]
The compound prepared as described above was pretreated at the final concentration shown in Table 3 and subjected to the assay system. Then, the rate of endothelin-induced rise in Ca concentration was calculated (N=6). […]

Row | Structure (SMILES) | Suppression of endothelin-induced rise in intracellular Ca concentration
1 | COc1cc(C)c(C(=O)Oc2cc(C)c(C(=O)O)c(O)c2C)c(O)c1C=O [Baeomycesic Acid, baeomycesic acid] | at least 45%
2 | COc1cc(C)c(C(=O)Oc2cc(C)c(C(=O)O)c(O)c2C)c(O)c1C [Barbatic Acid, Barbatic acid] | at least 45%
3 | COc1cc(C)c(C(=O)Oc2cc(C)c(C(=O)O)c(O)c2C)c(OC)c1C [Diffractaic Acid, Diffractaic acid] | at least 45%
